Measurements as given in the supplement of paper PMC10849652.
The other results are listed elsewhere or left out.

The chains behind the UniProt entries cited, without tags or fusion partners. Where a name states a change or a piece, a line headed by the entry shows the natural chain unless it says otherwise.
UniProt P19634, whole entry, looked up: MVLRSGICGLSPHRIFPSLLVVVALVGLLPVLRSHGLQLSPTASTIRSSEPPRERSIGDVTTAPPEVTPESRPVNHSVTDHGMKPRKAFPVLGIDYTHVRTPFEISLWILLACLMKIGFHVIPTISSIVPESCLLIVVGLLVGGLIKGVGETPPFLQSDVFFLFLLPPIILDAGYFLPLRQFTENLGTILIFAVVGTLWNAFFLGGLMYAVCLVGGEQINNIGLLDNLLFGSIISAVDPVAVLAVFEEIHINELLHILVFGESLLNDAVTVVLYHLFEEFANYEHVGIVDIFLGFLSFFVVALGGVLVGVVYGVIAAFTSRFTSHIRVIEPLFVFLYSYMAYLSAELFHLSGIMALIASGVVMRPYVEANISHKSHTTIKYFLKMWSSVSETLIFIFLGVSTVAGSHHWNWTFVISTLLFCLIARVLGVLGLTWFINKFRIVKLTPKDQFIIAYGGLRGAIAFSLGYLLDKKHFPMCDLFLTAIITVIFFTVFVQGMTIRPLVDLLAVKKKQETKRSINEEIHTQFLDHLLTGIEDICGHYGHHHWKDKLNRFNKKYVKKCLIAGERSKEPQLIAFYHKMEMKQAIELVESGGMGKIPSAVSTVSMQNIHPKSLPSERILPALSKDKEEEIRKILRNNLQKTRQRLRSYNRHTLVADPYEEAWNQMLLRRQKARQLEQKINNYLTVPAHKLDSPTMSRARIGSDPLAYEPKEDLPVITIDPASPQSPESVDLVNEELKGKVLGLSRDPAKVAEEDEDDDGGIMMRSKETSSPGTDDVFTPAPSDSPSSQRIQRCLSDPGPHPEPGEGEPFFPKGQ
UniProt Q9NVC3: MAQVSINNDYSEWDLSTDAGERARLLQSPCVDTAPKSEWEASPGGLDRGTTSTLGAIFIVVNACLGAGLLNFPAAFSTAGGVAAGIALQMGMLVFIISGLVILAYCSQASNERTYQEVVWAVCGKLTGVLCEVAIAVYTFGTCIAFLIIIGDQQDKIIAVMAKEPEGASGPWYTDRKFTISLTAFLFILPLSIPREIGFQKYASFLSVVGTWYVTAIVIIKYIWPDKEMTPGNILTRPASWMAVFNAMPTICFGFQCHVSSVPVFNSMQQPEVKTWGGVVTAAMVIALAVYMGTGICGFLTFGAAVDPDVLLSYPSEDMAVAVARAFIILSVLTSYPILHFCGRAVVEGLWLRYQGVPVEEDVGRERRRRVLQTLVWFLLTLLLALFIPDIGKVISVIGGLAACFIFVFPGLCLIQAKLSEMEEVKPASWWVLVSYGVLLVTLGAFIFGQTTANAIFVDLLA
UniProt Q9BSK2: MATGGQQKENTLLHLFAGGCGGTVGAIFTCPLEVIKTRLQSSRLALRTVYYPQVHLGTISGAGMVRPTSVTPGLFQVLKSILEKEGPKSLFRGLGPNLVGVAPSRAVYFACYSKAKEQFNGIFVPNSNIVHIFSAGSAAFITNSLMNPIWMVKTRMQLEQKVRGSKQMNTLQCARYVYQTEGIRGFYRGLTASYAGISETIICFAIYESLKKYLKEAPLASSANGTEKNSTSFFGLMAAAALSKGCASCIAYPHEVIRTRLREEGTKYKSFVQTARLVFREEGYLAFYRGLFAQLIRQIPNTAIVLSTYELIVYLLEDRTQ
UniProt Q01650: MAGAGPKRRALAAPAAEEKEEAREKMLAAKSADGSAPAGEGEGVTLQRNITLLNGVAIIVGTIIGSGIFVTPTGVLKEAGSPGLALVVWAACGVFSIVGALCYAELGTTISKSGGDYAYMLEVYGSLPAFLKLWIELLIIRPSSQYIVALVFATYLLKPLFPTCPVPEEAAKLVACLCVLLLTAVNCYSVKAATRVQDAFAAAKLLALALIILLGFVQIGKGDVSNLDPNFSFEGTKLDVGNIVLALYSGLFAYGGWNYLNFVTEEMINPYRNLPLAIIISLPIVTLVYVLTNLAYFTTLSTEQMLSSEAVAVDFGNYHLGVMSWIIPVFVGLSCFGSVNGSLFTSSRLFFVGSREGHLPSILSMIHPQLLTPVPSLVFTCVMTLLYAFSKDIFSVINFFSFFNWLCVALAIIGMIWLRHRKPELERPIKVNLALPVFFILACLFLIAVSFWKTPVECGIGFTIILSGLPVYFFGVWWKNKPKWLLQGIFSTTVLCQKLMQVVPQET
UniProt O76082: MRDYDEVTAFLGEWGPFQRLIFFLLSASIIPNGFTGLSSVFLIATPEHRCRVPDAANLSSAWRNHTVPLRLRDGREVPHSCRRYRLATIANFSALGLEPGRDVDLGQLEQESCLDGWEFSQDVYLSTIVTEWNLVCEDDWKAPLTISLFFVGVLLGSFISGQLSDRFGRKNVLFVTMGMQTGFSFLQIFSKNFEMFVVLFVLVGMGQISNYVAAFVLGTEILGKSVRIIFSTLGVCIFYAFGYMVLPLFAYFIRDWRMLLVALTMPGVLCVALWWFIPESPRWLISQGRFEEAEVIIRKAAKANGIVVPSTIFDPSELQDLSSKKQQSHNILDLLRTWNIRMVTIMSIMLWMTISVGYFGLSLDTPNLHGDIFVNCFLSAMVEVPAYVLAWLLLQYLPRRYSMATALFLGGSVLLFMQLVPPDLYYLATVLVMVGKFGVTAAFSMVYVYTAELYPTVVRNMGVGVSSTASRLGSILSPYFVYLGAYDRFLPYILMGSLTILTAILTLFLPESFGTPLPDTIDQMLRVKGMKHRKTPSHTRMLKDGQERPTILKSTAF
UniProt Q96H78: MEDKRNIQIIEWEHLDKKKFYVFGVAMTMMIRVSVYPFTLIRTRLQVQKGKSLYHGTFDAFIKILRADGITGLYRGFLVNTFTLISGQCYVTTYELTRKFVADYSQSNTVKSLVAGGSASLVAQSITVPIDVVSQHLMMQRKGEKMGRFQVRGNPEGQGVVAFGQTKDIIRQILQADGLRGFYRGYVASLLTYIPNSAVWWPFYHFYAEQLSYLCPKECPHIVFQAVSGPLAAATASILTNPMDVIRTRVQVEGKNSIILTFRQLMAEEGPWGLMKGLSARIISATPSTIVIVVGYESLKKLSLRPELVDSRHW
UniProt P30825: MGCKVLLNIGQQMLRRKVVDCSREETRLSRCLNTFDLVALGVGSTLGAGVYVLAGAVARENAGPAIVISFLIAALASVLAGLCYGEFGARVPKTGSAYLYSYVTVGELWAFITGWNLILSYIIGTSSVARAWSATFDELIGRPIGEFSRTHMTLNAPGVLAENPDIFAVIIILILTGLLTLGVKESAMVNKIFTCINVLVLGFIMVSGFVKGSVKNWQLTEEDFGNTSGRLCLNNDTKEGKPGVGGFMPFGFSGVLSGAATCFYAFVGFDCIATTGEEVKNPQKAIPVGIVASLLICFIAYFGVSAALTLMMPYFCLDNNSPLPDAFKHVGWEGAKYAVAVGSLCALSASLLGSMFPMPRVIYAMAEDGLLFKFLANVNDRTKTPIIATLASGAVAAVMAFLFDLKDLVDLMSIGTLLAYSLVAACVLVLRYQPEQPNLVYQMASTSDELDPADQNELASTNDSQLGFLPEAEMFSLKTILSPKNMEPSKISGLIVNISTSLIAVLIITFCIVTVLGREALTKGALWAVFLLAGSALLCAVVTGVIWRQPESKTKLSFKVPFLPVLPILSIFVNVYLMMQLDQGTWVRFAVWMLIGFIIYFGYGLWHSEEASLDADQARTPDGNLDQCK
UniProt Q13485: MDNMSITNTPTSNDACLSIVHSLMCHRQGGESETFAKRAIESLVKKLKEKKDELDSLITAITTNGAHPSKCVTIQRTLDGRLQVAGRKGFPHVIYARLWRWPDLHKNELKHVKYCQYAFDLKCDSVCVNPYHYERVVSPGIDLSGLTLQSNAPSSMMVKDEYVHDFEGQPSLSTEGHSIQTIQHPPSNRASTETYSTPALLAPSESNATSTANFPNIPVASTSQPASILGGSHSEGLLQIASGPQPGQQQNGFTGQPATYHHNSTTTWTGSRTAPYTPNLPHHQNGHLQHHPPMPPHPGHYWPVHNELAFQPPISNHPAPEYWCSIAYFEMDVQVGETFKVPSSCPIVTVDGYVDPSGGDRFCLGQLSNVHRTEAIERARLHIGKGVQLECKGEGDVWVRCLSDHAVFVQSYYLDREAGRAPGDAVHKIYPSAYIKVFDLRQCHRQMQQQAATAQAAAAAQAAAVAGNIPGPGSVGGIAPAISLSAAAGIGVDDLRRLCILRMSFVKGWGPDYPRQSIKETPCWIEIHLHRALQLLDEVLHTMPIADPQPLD
UniProt P78383: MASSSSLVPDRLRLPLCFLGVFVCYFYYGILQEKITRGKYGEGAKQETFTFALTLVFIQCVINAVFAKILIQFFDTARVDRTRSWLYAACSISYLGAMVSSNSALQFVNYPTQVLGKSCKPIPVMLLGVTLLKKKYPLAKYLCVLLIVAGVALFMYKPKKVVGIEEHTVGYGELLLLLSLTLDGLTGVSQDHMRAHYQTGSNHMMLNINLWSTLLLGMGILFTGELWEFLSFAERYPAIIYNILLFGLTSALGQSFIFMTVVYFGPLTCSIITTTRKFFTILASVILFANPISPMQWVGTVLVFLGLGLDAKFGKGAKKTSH
UniProt Q96QD8: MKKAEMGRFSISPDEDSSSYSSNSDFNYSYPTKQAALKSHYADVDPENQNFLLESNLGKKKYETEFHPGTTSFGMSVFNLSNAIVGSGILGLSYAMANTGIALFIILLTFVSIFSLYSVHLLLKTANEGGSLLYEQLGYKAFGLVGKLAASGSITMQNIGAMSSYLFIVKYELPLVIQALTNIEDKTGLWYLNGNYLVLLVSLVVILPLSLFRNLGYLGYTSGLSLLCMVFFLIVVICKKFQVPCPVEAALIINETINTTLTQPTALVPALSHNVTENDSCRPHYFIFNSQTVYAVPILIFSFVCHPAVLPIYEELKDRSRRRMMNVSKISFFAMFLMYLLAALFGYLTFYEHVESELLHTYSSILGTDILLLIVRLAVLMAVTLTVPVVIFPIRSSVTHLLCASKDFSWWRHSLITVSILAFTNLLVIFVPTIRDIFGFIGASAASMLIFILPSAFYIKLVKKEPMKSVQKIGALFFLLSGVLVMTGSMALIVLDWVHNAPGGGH
UniProt P78381: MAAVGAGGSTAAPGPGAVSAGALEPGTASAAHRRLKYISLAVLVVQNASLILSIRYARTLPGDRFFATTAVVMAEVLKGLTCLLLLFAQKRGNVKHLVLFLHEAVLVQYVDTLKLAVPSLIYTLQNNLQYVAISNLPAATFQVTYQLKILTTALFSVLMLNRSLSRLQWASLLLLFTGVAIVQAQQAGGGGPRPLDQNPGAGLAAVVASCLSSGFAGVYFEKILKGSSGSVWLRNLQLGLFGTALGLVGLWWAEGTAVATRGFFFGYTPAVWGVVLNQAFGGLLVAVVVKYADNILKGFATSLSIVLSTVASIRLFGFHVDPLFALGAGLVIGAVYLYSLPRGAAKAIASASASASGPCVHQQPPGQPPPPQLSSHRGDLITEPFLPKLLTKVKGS
UniProt O43808: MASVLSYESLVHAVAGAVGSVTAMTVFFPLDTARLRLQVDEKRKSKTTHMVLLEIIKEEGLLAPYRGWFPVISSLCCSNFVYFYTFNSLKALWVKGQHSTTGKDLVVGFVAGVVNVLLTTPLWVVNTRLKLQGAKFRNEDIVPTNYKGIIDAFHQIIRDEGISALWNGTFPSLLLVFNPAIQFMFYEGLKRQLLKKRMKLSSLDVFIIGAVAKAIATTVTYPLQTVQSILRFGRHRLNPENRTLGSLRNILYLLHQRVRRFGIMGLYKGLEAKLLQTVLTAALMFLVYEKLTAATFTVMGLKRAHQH
UniProt Q8N357: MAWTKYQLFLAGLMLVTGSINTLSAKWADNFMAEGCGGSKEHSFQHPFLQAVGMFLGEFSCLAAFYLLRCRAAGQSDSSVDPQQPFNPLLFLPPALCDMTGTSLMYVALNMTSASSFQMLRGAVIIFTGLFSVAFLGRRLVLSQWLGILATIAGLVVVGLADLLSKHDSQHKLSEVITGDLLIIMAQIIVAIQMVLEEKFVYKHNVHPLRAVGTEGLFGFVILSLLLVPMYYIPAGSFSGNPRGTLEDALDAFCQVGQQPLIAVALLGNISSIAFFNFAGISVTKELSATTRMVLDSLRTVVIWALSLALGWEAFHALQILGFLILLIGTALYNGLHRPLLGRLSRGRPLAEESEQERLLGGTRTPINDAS
UniProt P0CK96: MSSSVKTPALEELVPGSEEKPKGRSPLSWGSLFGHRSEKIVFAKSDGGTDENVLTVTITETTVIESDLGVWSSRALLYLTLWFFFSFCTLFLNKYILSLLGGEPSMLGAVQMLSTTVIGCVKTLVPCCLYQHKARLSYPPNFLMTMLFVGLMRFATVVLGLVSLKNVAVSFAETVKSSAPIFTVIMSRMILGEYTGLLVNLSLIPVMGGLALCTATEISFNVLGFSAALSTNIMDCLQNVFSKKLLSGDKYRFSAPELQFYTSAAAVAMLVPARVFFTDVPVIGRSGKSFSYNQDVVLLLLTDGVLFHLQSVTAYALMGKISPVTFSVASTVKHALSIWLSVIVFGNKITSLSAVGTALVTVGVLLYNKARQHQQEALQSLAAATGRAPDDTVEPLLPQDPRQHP

What was measured:
Assay in all cases: log2 fold change, soluble protein after heating vs DMSO (PISA); higher = thermal stabilisation; K562 lysate, 10 uM; active = over 0.2 and 3.5 SD of the protein, either way, in both replicates (recomputed)
erlotinib = compound: C#Cc1cccc(Nc2ncnc3cc(OCCOC)c(OCCOC)cc23)c1 [erlotinib]
Outline: (§1)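 K562 pellets were dounce-homogenised in PBS pH 7.4 containing 1 mM MgCl2, and the crude extract, at 1 mg/mL protein, was exposed to 10 μM compound for 30 min. Aliquots were heated for 3 min across 48°C-58°C, pooled, brought to 0.5% NP-40 at 4°C and spun at 21,000xg for 90 min, with the supernatant taken as soluble protein. TMTpro 16plex LC-MS/MS with equalised channel sums quantified that protein. Values are log-two fold changes in thermal stability relative to solvent controls, taken from duplicates.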

[1] = compound: C/C(=N\NC(=O)C1=CC(=CC=C1)S(=O)(=O)N2CCOCC2)/C3=C(C=CC(=C3)Cl)O
Outline: as §1

[2] = compound: C1=CC(=CC=C1C2=NC3=C(N2)C=C(C=C3)C(=O)N)OC4=CC=C(C=C4)Cl
Outline: as §1

[3] = compound: C1=CC2=C(C=CC(=C2)/C=C\3/C(=O)NC(=NCC4=CC=CS4)S3)N=C1
Outline: as §1

[4] = compound: C1=CC2=NC=CN=C2C=C1/C=C/3\C(=O)NC(=O)S3
Outline: as §1

[5] = compound: C1=CC=C(C=C1)C2=NC(=C(N2)C3=CC=NC=C3)C4=CC(=C(C=C4)Cl)O
Outline: as §1

[6] = compound: C1=CC=C2C(=C1)C3=NNC4=CC=CC(=C43)C2=O
Outline: as §1

[7] = compound: C1CCN(C1)C(=O)NC2=CC=CC(=C2)NC3=NC=C(C(=N3)NCCC4=CN=CN4)Br
Outline: as §1

[8] = compound: C1CN(CCC1(CC2=CC=C(C=C2)Cl)N)C3=NC=NC4=C3C=CN4
Outline: as §1

IRAK-1-4 Inhibitor I = compound: C1COCCN1CCN2C3=CC=CC=C3N=C2NC(=O)C4=CC(=CC=C4)[N+](=O)[O-] [IRAK-1-4 Inhibitor I]
Outline: as §1

Measured: log2 fold change

SLC7A6OS (UniProt Q96CW6)
inactive: erlotinib -0.018 | [1] 0.03 | [2] -0.006 | [3] 0.001 | [4] -0.047 | [5] 0.036 | [6] -0.004 | [7] 0.016 | [8] 0.036 | IRAK-1-4 Inhibitor I 0.005

SLC22A23 (UniProt A1A5C7)
inactive: erlotinib -0.045 | [1] 0.048 | [2] 0.076 | [3] -0.058 | [4] 0.002 | [5] 0.057 | [6] 0.08 | [7] -0.008 | [8] 0.016 | IRAK-1-4 Inhibitor I 0.122

SLC35B4 (UniProt Q969S0)
inactive: erlotinib 0.026 | [1] -0.028 | [2] -0.278 | [3] 0 | [4] 0.018 | [5] -0.058 | [6] -0.042 | [7] 0.02 | [8] 0.07 | IRAK-1-4 Inhibitor I 0.129

SLC25A30 (UniProt Q5SVS4)
inactive: erlotinib 0.01 | [1] -0.043 | [2] -0.042 | [3] 0.028 | [4] 0.007 | [5] -0.035 | [6] 0.054 | IRAK-1-4 Inhibitor I -0.041

SLC9A1 (UniProt P19634)
inactive: erlotinib -0.01 | [1] -0.123 | [2] -0.035 | [3] -0.072 | [4] -0.001 | [5] 0.12 | [6] 0.021 | [7] 0.066 | [8] -0.007 | IRAK-1-4 Inhibitor I -0.016

SLC30A5 (UniProt Q8TAD4)
inactive: erlotinib -0.015 | [1] 0.072 | [2] -0.178 | [3] 0.086 | [4] 0.015 | [5] -0.05 | [6] -0.156 | [7] -0.083 | [8] -0.019 | IRAK-1-4 Inhibitor I 0.041

SLC38A5 (UniProt Q8WUX1)
inactive: erlotinib 0.008 | [1] -0.29 | [2] 0.011 | [3] 0.012 | [4] 0.022 | [5] 0.012 | [6] -0.017 | [7] 0.015 | [8] 0 | IRAK-1-4 Inhibitor I 0.01

SLC38A7 (UniProt Q9NVC3)
inactive: erlotinib -0.05 | [1] -0.022 | [2] 0.047 | [3] 0.023 | [4] 0.043 | [6] -0.058 | [7] 0.044 | [8] 0.052

SLC25A33 (UniProt Q9BSK2)
inactive: erlotinib 0.015 | [1] 0.029 | [2] -0.05 | [3] 0.025 | [4] -0.011 | [5] 0.041 | [6] -0.061 | [7] 0.04 | [8] -0.012 | IRAK-1-4 Inhibitor I 0.024

SLC7A5 (UniProt Q01650)
inactive: erlotinib 0.001 | [1] -0.009 | [2] -0.029 | [3] -0.015 | [4] 0.02 | [5] 0.007 | [6] -0.008 | [7] 0.019 | [8] -0.006 | IRAK-1-4 Inhibitor I 0.021

SLC22A5 isoform 3 (UniProt O76082)
inactive: erlotinib 0.259 | [1] -0.145 | [2] 0.055 | [3] -0.034 | [4] 0.028 | [5] 0.239 | [6] 0.042 | IRAK-1-4 Inhibitor I -0.188

SLC25A44 (UniProt Q96H78)
inactive: erlotinib 0.117 | [1] -0.275 | [2] 0.055 | [3] -0.018 | [4] 0.025 | [5] -0.064 | [6] 0.145 | [7] -0.039 | [8] 0.037 | IRAK-1-4 Inhibitor I -0.053

SMAP (UniProt O00193)
inactive: erlotinib 0.007 | [1] 0.008 | [2] 0.066 | [3] -0.016 | [4] -0.001 | [5] 0 | [6] 0.009 | [7] 0.061 | [8] 0.013 | IRAK-1-4 Inhibitor I -0.01

SLC7A1 (UniProt P30825)
inactive: erlotinib 0.043 | [1] 0.058 | [2] 0.067 | [3] 0.032 | [4] -0.006 | [5] 0.002 | [6] -0.001 | [7] -0.011 | [8] -0.036 | IRAK-1-4 Inhibitor I -0.016

Quoted at random: two records from the list, in no set order.
SLC7A1 (UniProt P30825)
inactive: erlotinib 0.043 | [1] 0.058 | [2] 0.067 | [3] 0.032 | [4] -0.006 | [5] 0.002 | [6] -0.001 | [7] -0.011 | [8] -0.036 | IRAK-1-4 Inhibitor I -0.016

SLC25A44 (UniProt Q96H78)
inactive: erlotinib 0.117 | [1] -0.275 | [2] 0.055 | [3] -0.018 | [4] 0.025 | [5] -0.064 | [6] 0.145 | [7] -0.039 | [8] 0.037 | IRAK-1-4 Inhibitor I -0.053

Additional results follow:

SLC39A8 (UniProt Q9C0K1)
inactive: erlotinib -0.039 | [1] -0.3 | [2] -0.013 | [3] 0.124 | [5] 0.01 | [6] 0.003 | [7] -0.067 | [8] 0.036 | IRAK-1-4 Inhibitor I -0.004

SLIRP (UniProt Q9GZT3)
inactive: erlotinib -0.021 | [1] -0.016 | [2] 0.046 | [3] -0.048 | [4] 0.01 | [5] -0.009 | [6] -0.038 | [7] -0.005 | [8] 0.03 | IRAK-1-4 Inhibitor I 0.031

SLC38A9 (UniProt Q8NBW4)
inactive: erlotinib -0.006 | [1] -0.13 | [2] 0.035 | [3] 0.009 | [4] 0.1 | [5] -0.028 | [6] -0.148 | [7] -0.041 | [8] -0.01 | IRAK-1-4 Inhibitor I 0.029

SLC40A1 (UniProt Q9NP59)
inactive: erlotinib 0.188 | [1] -0.035 | [2] 0.233 | [3] 0.042 | [5] -0.052 | [6] -0.122 | [7] -0.015 | [8] 0.05 | IRAK-1-4 Inhibitor I 0.048

SMAD4 (UniProt Q13485)
inactive: erlotinib 0.003 | [1] 0.141 | [2] 0.024 | [3] -0.019 | [4] -0.022 | [5] 0.028 | [6] -0.038 | [7] -0.011 | [8] -0.005 | IRAK-1-4 Inhibitor I 0

SLC35B1 isoform 2 (UniProt P78383)
inactive: erlotinib -0.008 | [1] -0.046 | [2] 0.009 | [3] 0.055 | [5] 0.092 | [6] -0.168 | [7] -0.011 | [8] -0.005 | IRAK-1-4 Inhibitor I -0.055

SLC38A2 (UniProt Q96QD8)
inactive: erlotinib -0.034 | [1] -0.046 | [2] -0.019 | [3] 0.028 | [4] 0.048 | [5] -0.024 | [6] 0.003 | [7] 0.005 | [8] -0.04 | IRAK-1-4 Inhibitor I -0.005

SLC35A2 isoform 4 (UniProt P78381)
inactive: erlotinib -0.015 | [1] 0.034 | [2] 0.006 | [3] -0.04 | [4] -0.044 | [5] 0.027 | [6] -0.016 | [7] 0.036 | [8] -0.007 | IRAK-1-4 Inhibitor I 0.08

SLC25A32 (UniProt Q9H2D1)
inactive: erlotinib 0.035 | [1] 0.02 | [2] -0.062 | [3] 0.011 | [4] -0.013 | [5] -0.027 | [6] 0.056 | [7] 0.018 | [8] -0.002 | IRAK-1-4 Inhibitor I 0.029

SLC35E1 (UniProt Q96K37)
inactive: erlotinib 0.045 | [1] -0.046 | [2] -0.011 | [3] 0.066 | [4] -0.12 | [5] 0.02 | [6] -0.003 | [7] -0.106 | [8] -0.15 | IRAK-1-4 Inhibitor I -0.019

SLC9A3R1 (UniProt O14745)
inactive: erlotinib 0.004 | [1] 0.001 | [2] -0.002 | [3] -0.02 | [4] -0.013 | [5] -0.014 | [6] 0.013 | [7] 0.005 | [8] -0.001 | IRAK-1-4 Inhibitor I 0.034

SLC25A17 (UniProt O43808)
inactive: erlotinib 0.035 | [1] 0.057 | [2] 0.061 | [3] 0.014 | [4] -0.015 | [5] 0.012 | [6] -0.021 | [7] 0.012 | [8] 0.03 | IRAK-1-4 Inhibitor I 0.056

SLC35F6 (UniProt Q8N357)
inactive: erlotinib 0.029 | [1] -0.129 | [2] 0.068 | [3] 0.094 | [4] 0.022 | [5] -0.02 | [6] -0.105 | [7] 0.078 | [8] -0.045 | IRAK-1-4 Inhibitor I -0.009

SLC25A46 (UniProt Q96AG3)
inactive: erlotinib 0.01 | [1] 0.047 | [2] -0.006 | [3] -0.03 | [4] -0.088 | [5] -0.016 | [6] 0 | [7] -0.004 | [8] 0.027 | IRAK-1-4 Inhibitor I 0.039

SLC35E2B (UniProt P0CK96)
inactive: [1] 0.006 | [3] -0.112 | [6] -0.175 | [7] 0.043 | [8] 0.007

SLC26A11 (UniProt Q86WA9)
inactive: erlotinib 0.067 | [2] -0.028

SLC38A6 isoform 2 (UniProt Q8IZM9)
inactive: erlotinib 0.07 | [1] -0.086 | [2] 0.05 | [3] 0.075 | [6] -0.118

SLC44A1 (UniProt Q8WWI5)
inactive: [5] -0.251 | IRAK-1-4 Inhibitor I -0.034
